These are literature values, as cited in publication PMC3511310, “In Vivo Imaging and Quantification of Carbonic Anhydrase IX Expression as an Endogenous Biomarker of Tumor Hypoxia” (PLoS ONE, 2012).

This data set has as its target hCA XIV. Also noted: method as in PMID 22079760. To be noted: stopped-flow CO2 hydration method.

Consider `CC(=O)Nc1nnc(S(N)(=O)=O)s1` [AZ, acetazolamide], for which the Ki (usually a measure of affinity in units of concentration, obtained from inhibition or displacement) is 41 nM.
